US20240210419A1 (UNIVERSITY OF VIRGINIA PATENT FOUNDATION, published 2024)
No constants are given. Whether binding was seen depends on the method and setting. Some binding calls cover weakened binding; strength is not graded here.

Amino acid sequences for entries named in this document (tags omitted). A change or cut given only in a name is not applied to a line headed by its entry. Chains listed by the source or under a name are the forms on record and can include a tag or linker.
FN-4G-10 recombinant fibronectin fragment (diseased form mimic) (P02751, form named): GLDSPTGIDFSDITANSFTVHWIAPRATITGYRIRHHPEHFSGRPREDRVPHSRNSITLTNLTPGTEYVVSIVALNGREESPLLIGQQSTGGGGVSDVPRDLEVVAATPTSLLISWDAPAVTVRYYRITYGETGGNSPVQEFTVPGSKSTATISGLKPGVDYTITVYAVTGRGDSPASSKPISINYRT

Tests used:
[1] = target: FN-4G-10 recombinant fibronectin fragment (diseased form mimic) (UniProt P02751); assay: ELISA (summary of EXAMPLE 1)
[2] = target: FN-4G-10 recombinant fibronectin fragment (diseased form mimic) (UniProt P02751); assay: ELISA, fibronectin fragment tethered to maleimide activated plate
[3] = target: FN-4G-10 recombinant fibronectin fragment (diseased form mimic) (UniProt P02751); assay: ELISA, fibronectin fragment tethered on maleimide-activated plate, colorimetric detection (absorbance)
[4] = target: FN-4G-10 recombinant fibronectin fragment (diseased form mimic) (UniProt P02751); assay: summary sentence in the discussion of the examples; paragraph 206 says the H5-IgG1 supernatants were used in the ELISA binding assay of EXAMPLE 1

Measured: binding

B1: modified H5-IgG1 antibody (antibody, V domains shown)
VH: EVQLLESGGGLVQPGGSLRLSCAASGFTFSSYAMSWVRQAPGKGLEWVSDIYDGGGTNYADSVKGRFTTSRDNSKNTLYLQMNSLRAEDTAVYYCAKTADNFDYWGQGTLVTVSS
VL: DIQMTQSPSSLSASVGDRVTITCRASQSISSYLNWYQQKPGKAPKLLIYAASTLQSGVPSRFSGSGSGTDFTLTISSLQPEDFATYYCQQANSAPTTFGQGTKVEIKR
notes: Full length IgG1 format; Made in a plug-and-(dis)play (PnP) hybridoma cell line; also called modified IgG1 format of H5
binds: [1] | [2] | [3] | [4]
